# Data: PubChem BioAssay AID2685 (National Center for Advancing Translational Sciences (NCATS), 2010)
# This is one part of the list. Further columns of the screen follow, without active or inactive calls. Most of these compounds were active or inconclusive in the main read-out, so they are no random draw. The note in brackets gives the kind of curve behind each potency; many fits are weak.
# Experiment: qHTS Assay for Lipid Storage Modulators in Drosophila S3 Cells;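 for cell number change: cells counted by Cell Tracker Red CMTPX staining in the red channel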
# Details: BODIPY lipid droplet fluorescence, 18-24 h; for cell number change: measured here: cell count max response, cells fed with added oleic acid
# Method in brief: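 Drosophila S3 cells loaded with oleic acid (400 uM, as added) and compounds at several concentrations; lipid droplets imaged by 488-nm laser-scanning cytometry, 500–530 nm intensity and object ratio to cell channel. Percent activity normalized to 20 uM Triacsin C.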
# [1] = measured here: cell number channel AC50, cells fed with added oleic acid
# [2] = measured here: lipid fluorescence (Fed channel) AC50, cells fed with added oleic acid
SMILES,cell number change,AC50 [1],AC50 [2]
Cc1ccc(NS(=O)(=O)c2ccc(C(=O)NCc3cccnc3)cc2)cc1,37.8%,"2.06 µM [rising, full curve, poor fit]","0.58 µM [falling, single point]"
COc1ccc(CNc2nc3c(c(=O)[nH]c(=O)n3C)n2Cc2ccccc2C)cc1,23.2%,,"0.651 µM [rising, full curve, poor fit]"
CCNC(=S)N=Nc1c(O)n(Cc2ccc(Cl)cc2)c2ccccc12,8.94%,,"2.06 µM [rising, single point]"
Cc1oc(CC(C)C)c(CN2CCCC2)c1C(=O)O,-40.2%,"0.00517 µM [falling, full curve]","1.3 µM [falling, full curve]"
Cc1ccc2oc(C(=O)N(C)Cc3ccc(C)o3)c(C)c2c1,-25.7%,,"2.31 µM [falling, partial curve]"
Cc1ccc(S(=O)(=O)N2CCC(C(=O)N3CCC[C@H]3C(=O)NCc3ccccc3)CC2)cc1,15.5%,,
COc1cc(SC)ccc1C(=O)Nc1ccc2c(c1)CCN2S(C)(=O)=O,6.64%,"0.13 µM [rising, full curve, poor fit]",
COc1cc(OC)c(C(=O)Nc2ccc(N(C)C)cc2)cc1OC,-15.8%,,"16.4 µM [rising, partial curve]"
CCOc1ccc(NS(=O)(=O)c2ccc(OC)c(C)c2)cc1,49.7%,"6.51 µM [rising, partial curve, poor fit]","23.1 µM [rising, single point]"
O=[N+]([O-])c1cc(Cl)cc(/C=N/n2cnnc2)c1O,-32.5%,"2.06 µM [falling, partial curve]","6.51 µM [rising, partial curve, poor fit]"
NC(=O)c1ccc(NC(=O)CN2CCN(C(=O)c3ccco3)CC2)cc1,7.37%,,"0.58 µM [rising, single point]"
CCOC(=O)C1(Cc2cccc(F)c2)CCN(C(=O)COC)CC1,10.4%,"3.26 µM [falling, single point]",
O=C(NN1CCOCC1)c1ccc(Br)s1,-12%,"5.17 µM [falling, single point]","3.66 µM [falling, full curve]"
O=C1C(Cl)=C(NC2CCCCC2)C(=O)N1c1ccc(Cl)cc1,3.81%,,"0.651 µM [rising, full curve, poor fit]"
COC(=O)c1ccc(OC(=O)CCS(=O)(=O)c2ccc(C)cc2)cc1,-0.105%,,"1.3 µM [falling, full curve, poor fit]"
C=CCn1c(SCc2cc(=O)n3ccsc3n2)nnc1C1CCCCC1,,"0.731 µM [rising, partial curve]",
O=S1(=O)CCOCCCN1Cc1ccc(Cl)cc1,32.7%,,"25.9 µM [rising, single point]"
COc1ccc(OC)c(Nc2c3ccccc3nc3ccccc23)c1,-66.8%,"18.4 µM [falling, single point]","18.4 µM [falling, single point]"

SMILES,cell number change,AC50 [1],AC50 [2]
COc1cc(/C=N/N=C(N)N)ccc1OCc1ccc(Cl)cc1,-1.1%,"3.26 µM [falling, single point]","4.11 µM [falling, single point]"
Cc1cc(C(F)F)n2ncc(C(=O)NCCc3ccccc3Cl)c2n1,9.28%,,"6.51 µM [rising, single point]"
COc1ccc(OC)c(-n2cc3c(=O)n(C)c(=O)n(C)c3c2)c1,57.3%,"25.9 µM [rising, single point]","0.517 µM [rising, single point]"
Cc1ccc(/C=C/C(=O)O)cc1S(=O)(=O)NCc1cccnc1,,,"29.1 µM [rising, single point]"
Cc1ccc(C2CN(CCC(N)=O)C(=O)CO2)cc1 (stereo not drawn),-34.4%,,"29.1 µM [falling, single point]"
Cc1ccc2c(c1)c(N=O)c(O)n2Cc1ccc(Cl)cc1,-68.8%,"16.4 µM [falling, single point]",
COc1ccc(NC(=O)c2cccc3c2C(=O)N(C2CCCCC2)C3)cc1,,,"0.13 µM [falling, single point]"
CCOc1ccc(CCNS(=O)(=O)c2ccc3c(c2)NC(=O)CO3)cc1OCC,-16.2%,,"29.1 µM [rising, single point]"
O=C(Nc1ccc(F)cc1F)c1ccc(-n2cccn2)nc1,-5.08%,"6.51 µM [rising, single point]",
COc1ccc(C2CC(c3cccs3)=NN2C(=O)COC(=O)c2cncc(Br)c2)cc1OC (stereo not drawn),,"0.58 µM [rising, single point]","6.51 µM [rising, single point]"
Cc1nc2c(ccc3c2ccc2nc(C)sc23)s1,10.3%,,"0.00651 µM [rising, full curve, poor fit]"
CCOc1cccc2c1OC1(CCCCC1)N1N=C(c3cccnc3)CC21 (stereo not drawn),41.7%,"32.6 µM [rising, single point]","0.206 µM [rising, full curve, poor fit]"
COc1ccc(C(=S)N2CCCC2)cc1OC,-60.5%,"29.1 µM [falling, single point]","29.1 µM [falling, single point]"
Cc1nnc(NC(=O)C2CCN(c3nnnn3-c3ccccc3)CC2)s1,-16.6%,"0.13 µM [falling, full curve, poor fit]",
C[C@H](CCC(=O)O)[C@H]1CC[C@H]2[C@@H]3[C@@H](O)C[C@@H]4C[C@H](O)CC[C@]4(C)[C@H]3CC[C@]12C,-21.1%,"0.00517 µM [falling, full curve, poor fit]",
O=C(NCCC(=O)N(Cc1ccco1)Cc1cccs1)c1ccc(Br)cc1,-42.4%,"29.1 µM [falling, single point]",
CCn1c(SCC#N)nc2ccccc2c1=O,16%,,
CCC(C)c1ccc(OCC(=O)Nc2ccc3c(c2)C(=O)NC3=O)cc1 (stereo not drawn),-33.7%,"14.6 µM [falling, partial curve, poor fit]","0.116 µM [falling, full curve, poor fit]"

# Individual results from the results shown.
# For AC50 [2], O=C1C(Cl)=C(NC2CCCCC2)C(=O)N1c1ccc(Cl)cc1 reads 0.651 µM [rising, full curve, poor fit]
# For cell number change, CCOC(=O)C1(Cc2cccc(F)c2)CCN(C(=O)COC)CC1 reads 10.4%
# For cell number change, CCC(C)c1ccc(OCC(=O)Nc2ccc3c(c2)C(=O)NC3=O)cc1 (stereo not drawn) reads -33.7%
